The target in test [1] is GST-Mig2nls1 fusion protein (S. cerevisiae) (UniProt P53035). The experiment in a line: pull-down; GST fusion on glutathione-Sepharose incubated with whole cell extract of W303-1A (high or low glucose) for 1 h at 4°C in PBS; blot with anti-Kap60 or anti-Kap95; only the target purified.
Test [2] addresses GST-Mig2 fusion protein (S. cerevisiae) (UniProt P53035). The description is as above.
In test [3] the target is Kap60 (importin-α), endogenous (S. cerevisiae (endogenous in yeast extract)) (UniProt Q02821). The experiment in a line: co-IP; whole cell extracts of yeast grown in high glucose or shifted to low glucose for 1 h; immunoprecipitated with polyclonal anti-Kap60 or anti-Kap95 and protein A-Sepharose, washed with PBS plus 0.5% deoxycholate; blot with anti-GFP.

Sequences of proteins named here, by UniProt entry; tags and fusion partners are left off. A change or cut given only in a name is not applied to a line headed by its entry.
UniProt P53035: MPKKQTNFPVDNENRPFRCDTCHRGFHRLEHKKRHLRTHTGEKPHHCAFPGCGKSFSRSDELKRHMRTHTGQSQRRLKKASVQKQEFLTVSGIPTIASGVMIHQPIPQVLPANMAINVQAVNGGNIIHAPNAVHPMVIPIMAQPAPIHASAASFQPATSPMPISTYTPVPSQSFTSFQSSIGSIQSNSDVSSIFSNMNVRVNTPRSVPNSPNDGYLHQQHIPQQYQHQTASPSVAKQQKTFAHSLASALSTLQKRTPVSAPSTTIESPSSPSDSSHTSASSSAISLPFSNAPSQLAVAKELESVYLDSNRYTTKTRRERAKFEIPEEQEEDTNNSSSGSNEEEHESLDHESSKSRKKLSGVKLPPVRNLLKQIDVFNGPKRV
UniProt Q02821: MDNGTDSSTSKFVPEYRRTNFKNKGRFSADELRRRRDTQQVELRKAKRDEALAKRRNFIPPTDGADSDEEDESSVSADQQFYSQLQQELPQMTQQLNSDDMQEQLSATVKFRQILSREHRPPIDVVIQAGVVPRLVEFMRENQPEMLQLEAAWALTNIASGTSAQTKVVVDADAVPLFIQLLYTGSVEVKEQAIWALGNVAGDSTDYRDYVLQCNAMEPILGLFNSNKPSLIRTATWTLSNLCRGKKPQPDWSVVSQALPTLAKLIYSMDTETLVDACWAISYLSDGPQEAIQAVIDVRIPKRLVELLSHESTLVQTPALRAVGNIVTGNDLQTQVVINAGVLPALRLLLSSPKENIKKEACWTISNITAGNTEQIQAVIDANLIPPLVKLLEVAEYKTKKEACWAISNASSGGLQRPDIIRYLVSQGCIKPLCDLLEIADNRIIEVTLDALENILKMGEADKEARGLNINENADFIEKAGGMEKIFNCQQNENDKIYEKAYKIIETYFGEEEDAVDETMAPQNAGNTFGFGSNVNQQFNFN

Results are given in words; binding and its absence hold for the method and conditions named. Binding seen in cells or lysates may run through a third protein. Some entries that bind do so weakly or less than the wild type.

For “Kap60 (importin-α), endogenous (from UniProt Q02821 1-542)”, the binding result in test [1] and in test [2] was “binds” each time. As to Mig2-GFP (from UniProt P53035 1-382), in test [3], the binding entry is given as “binds”.

For the origin of these results see publication PMC3531251.
